# From the supplement of paper PMC12067093, “Discovery and optimisation of a covalent ligand for TRIM25 and its application to targeted protein ubiquitination” (Chemical Science, 2025)
# Protein sequences, listed by entry. Tags and fused reporters are not part of them. Lines headed by an entry give the natural chain unless they say otherwise; changes in a name come on top.
# UniProt O95905: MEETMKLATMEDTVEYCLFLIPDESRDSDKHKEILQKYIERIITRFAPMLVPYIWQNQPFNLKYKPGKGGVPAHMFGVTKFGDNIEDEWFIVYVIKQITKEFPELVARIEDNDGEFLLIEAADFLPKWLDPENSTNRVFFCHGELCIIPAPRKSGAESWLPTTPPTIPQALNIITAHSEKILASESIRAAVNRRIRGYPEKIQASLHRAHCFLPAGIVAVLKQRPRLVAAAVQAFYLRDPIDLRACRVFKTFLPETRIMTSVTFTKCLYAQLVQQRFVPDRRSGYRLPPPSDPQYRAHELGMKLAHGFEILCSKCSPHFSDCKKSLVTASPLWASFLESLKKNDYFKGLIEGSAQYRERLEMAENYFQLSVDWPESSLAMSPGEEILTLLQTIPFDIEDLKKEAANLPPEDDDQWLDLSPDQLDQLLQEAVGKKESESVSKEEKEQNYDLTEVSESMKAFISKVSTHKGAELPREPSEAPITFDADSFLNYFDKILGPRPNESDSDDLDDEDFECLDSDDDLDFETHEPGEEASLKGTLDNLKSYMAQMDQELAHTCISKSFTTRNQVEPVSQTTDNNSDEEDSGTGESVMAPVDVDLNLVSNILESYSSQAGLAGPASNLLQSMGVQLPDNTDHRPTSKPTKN
# UniProt P30084: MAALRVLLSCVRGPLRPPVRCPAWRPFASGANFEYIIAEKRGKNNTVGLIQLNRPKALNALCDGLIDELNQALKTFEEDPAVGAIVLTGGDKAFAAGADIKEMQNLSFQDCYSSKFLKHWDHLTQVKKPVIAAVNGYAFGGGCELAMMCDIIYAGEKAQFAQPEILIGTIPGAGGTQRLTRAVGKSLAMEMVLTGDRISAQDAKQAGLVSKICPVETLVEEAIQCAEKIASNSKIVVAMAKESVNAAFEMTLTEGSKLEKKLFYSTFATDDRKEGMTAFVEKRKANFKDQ
# UniProt P68104, whole entry, looked up: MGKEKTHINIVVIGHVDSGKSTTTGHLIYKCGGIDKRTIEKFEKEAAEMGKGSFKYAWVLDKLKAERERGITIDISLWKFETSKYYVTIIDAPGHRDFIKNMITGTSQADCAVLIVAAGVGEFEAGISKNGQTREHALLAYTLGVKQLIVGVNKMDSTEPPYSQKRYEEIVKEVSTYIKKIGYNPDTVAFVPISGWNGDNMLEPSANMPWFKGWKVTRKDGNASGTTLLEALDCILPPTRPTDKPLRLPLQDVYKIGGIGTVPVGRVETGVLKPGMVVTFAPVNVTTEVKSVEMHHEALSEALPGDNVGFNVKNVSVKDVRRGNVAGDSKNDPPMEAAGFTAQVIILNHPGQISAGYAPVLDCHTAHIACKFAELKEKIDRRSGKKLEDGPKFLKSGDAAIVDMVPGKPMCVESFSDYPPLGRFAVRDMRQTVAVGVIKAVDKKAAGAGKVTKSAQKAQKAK
# UniProt Q13011: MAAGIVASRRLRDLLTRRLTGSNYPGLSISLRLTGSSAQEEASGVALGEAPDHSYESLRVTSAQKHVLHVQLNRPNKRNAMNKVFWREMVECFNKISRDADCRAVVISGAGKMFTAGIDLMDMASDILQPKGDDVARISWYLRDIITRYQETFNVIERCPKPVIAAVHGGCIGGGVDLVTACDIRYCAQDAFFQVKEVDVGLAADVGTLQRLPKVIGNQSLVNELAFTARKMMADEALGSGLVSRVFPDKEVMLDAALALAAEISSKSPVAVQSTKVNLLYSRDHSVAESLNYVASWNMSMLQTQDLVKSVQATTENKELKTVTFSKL
# UniProt Q9H223: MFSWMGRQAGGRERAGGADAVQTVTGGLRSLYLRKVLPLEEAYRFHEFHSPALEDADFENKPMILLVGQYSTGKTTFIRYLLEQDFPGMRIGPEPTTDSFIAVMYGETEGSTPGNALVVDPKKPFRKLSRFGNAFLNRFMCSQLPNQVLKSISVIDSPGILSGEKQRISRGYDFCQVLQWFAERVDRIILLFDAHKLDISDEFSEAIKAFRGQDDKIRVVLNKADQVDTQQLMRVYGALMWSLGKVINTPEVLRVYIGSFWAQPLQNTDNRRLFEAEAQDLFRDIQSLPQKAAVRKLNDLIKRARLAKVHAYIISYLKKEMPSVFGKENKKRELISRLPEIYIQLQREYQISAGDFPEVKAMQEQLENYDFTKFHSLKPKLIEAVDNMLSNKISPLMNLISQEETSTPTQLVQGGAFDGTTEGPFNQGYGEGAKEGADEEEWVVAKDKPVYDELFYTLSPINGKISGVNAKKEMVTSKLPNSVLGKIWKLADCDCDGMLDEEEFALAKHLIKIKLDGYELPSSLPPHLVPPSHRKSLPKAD
# UniProt P42126: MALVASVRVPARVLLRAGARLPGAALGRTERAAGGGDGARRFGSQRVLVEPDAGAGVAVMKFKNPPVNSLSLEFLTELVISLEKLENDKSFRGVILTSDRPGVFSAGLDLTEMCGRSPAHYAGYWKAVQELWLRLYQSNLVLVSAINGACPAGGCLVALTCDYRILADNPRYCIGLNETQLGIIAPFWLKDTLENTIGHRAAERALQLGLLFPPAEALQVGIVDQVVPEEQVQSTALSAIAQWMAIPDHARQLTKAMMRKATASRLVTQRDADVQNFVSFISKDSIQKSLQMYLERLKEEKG
# UniProt Q9UHF1: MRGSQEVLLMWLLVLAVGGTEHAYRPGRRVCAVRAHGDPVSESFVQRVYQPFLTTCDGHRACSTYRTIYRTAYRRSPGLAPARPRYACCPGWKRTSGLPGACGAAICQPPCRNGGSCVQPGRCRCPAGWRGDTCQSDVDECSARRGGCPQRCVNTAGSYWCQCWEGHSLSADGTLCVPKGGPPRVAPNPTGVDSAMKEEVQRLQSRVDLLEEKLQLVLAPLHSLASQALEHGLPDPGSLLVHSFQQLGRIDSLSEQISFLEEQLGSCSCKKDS
# UniProt Q5JPI9: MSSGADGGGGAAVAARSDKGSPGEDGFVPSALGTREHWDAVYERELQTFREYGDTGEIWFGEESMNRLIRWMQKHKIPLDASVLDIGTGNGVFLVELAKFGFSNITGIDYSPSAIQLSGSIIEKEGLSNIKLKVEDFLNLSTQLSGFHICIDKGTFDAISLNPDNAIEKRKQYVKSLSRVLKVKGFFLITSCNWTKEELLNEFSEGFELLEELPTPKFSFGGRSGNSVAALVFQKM
# Some of the results follow.
# Compound: CC1Cc2ccccc2N1C(=O)C1CCCN(C1)C(=O)CCl (mixture of isomers) [TRIM25 ligand 11 (diastereomer mixture)]
# Test: probe-labelled cysteine peptide fold change vs DMSO (competition) (log2 fold change); higher = less target engagement (more negative = stronger competition)
# Details: THP-1, incubation time: 4 h
# 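Note: competitive chemoproteomic profiling in live THP-1 cells with an iodoacetamide desthiobiotin (IA-DTB) probe, comparing probe-labelled peptide intensities in compound-treated cells against DMSO-treated controls.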
target,measurement,setting,value
ECD_O95905_267_CLYAQLVQQR (UniProt O95905),probe-labelled cysteine peptide fold change,10 µM,-0.0292
same,probe-labelled cysteine peptide fold change,50 µM,-0.11
EFTUD2_Q15029_468+476_IEHTYTGGVDSDLGEAMSDCDPDGPLMCHTTK (UniProt Q15029),probe-labelled cysteine peptide fold change,10 µM,-0.117
same,probe-labelled cysteine peptide fold change,50 µM,-0.451
ECHS1_P30084_111_EMQNLSFQDCYSSK (UniProt P30084),probe-labelled cysteine peptide fold change,10 µM,-0.266
same,probe-labelled cysteine peptide fold change,50 µM,-0.158
EEF1D_P29692_247_KLQIQCVVEDDKVGTDLLEEEITKFEEHVQSVDIAAFNK (UniProt P29692),probe-labelled cysteine peptide fold change,10 µM,-0.126
same,probe-labelled cysteine peptide fold change,50 µM,-0.0964
EEF1A1_P68104_234_DGNASGTTLLEALDCILPPTRPTDK (UniProt P68104),probe-labelled cysteine peptide fold change,10 µM,0.0408
same,probe-labelled cysteine peptide fold change,50 µM,0.0256
ECH1_Q13011_159+171+182_CPKPVIAAVHGGCIGGGVDLVTACDIR (UniProt Q13011),probe-labelled cysteine peptide fold change,10 µM,0.106
same,probe-labelled cysteine peptide fold change,50 µM,0.113
EHD4_Q9H223_141_FMCSQLPNQVLK (UniProt Q9H223),probe-labelled cysteine peptide fold change,10 µM,-0.048
same,probe-labelled cysteine peptide fold change,50 µM,-0.00282
EEF1D_P29692_217_SSILLDVKPWDDETDMAQLEACVR (UniProt P29692),probe-labelled cysteine peptide fold change,10 µM,-0.0881
same,probe-labelled cysteine peptide fold change,50 µM,-0.0228
ECI1_P42126_114_GVILTSDRPGVFSAGLDLTEMCGR (UniProt P42126),probe-labelled cysteine peptide fold change,10 µM,-0.0308
same,probe-labelled cysteine peptide fold change,50 µM,-0.0841
EGFL7_Q9UHF1_267+269_IDSLSEQISFLEEQLGSCSCK (UniProt Q9UHF1),probe-labelled cysteine peptide fold change,10 µM,0.102
same,probe-labelled cysteine peptide fold change,50 µM,-0.0497
EEF1AKMT2_Q5JPI9_150_LKVEDFLNLSTQLSGFHICIDK (UniProt Q5JPI9),probe-labelled cysteine peptide fold change,10 µM,0.0092
same,probe-labelled cysteine peptide fold change,50 µM,0.079
EEF2_P13639_536+557_SDPMVQCIIEESGEHIIAGAGELHLEICLK (UniProt P13639),probe-labelled cysteine peptide fold change,10 µM,-0.00604
same,probe-labelled cysteine peptide fold change,50 µM,-0.0746

# Taken from above for reference:
target,measurement,setting,value
EFTUD2_Q15029_468+476_IEHTYTGGVDSDLGEAMSDCDPDGPLMCHTTK (UniProt Q15029),probe-labelled cysteine peptide fold change,10 µM,-0.117
same,probe-labelled cysteine peptide fold change,50 µM,-0.451
